SMILES strings stand for the structures. Where a name gives a salt, the structure may show the parent alone. Some of the results follow. Single values are uncertain here, since repeats match poorly.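 Human embryonic kidney cells were transiently transfected with a plasmid bearing a Renilla luciferase gene under the HSV-TK promoter. This first-round screen tests roughly ten thousand compounds for ones that increase reporter output.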

This assay has as its system HEK 293FT. The assay can be described thus: log relative Renilla luciferase luminescence (reporter expression vs reference, reference not stated) (log (base not stated)); higher = higher recombinant reporter expression. Particulars: 10 µM; time after transfection 48 h.
Turning to `CC1(C)[C@H](C(=O)O)N2C(=O)C[C@H]2S1(=O)=O` [Sulbactam], the log was -0.1.

With `Cc1ncc(CO)c(CO)c1O` [Pyridoxine hydrochloride], the log was -0.219.

On to `CCc1c(C)[nH]c2c1C(=O)C(CN1CCOCC1)CC2` (stereo not given) [Molindone hydrochloride], for which the log is -0.00598.

Turning to `CCC1(c2ccccc2)NC(=O)N(C)C1=O` (stereo not given) [Mephenytoin], the log was determined as 0.241.

In the case of `CC1=C(/C=C/C(C)=C/C=C/C(C)=C/C(=O)O)C(C)(C)CCC1` [Retinoic acid], the log stood at 0.0562.

In the case of `NC(=O)c1cc[n+](CC2=C(C(=O)[O-])N3C(=O)[C@@H](NC(=O)[C@@H](c4ccccc4)S(=O)(=O)O)[C@H]3SC2)cc1` [Cefsulodin sodium salt], the log is -0.142.

`CC(=O)Oc1ccccc1C(=O)O` [Acetylsalicylic acid]: the log turned out to be 0.0179.

Regarding `N=C(N)NS(=O)(=O)c1ccc(N)cc1` [Sulfaguanidine], the log was 0.0787.

On to `COc1cc2nc(N(C)CCCNC(=O)C3CCCO3)nc(N)c2cc1OC` (stereo not given) [Alfuzosin hydrochloride], for which the log was -0.367.

Turning to `Clc1ccc(Cn2c(CN3CCCC3)nc3ccccc32)cc1` [Clemizole hydrochloride], the log worked out at 0.101.

As to `N[C@@H]1CONC1=O` [D-cycloserine], the log stood at 0.173.

For `O=C(O)COCCN1CCN(C(c2ccccc2)c2ccc(Cl)cc2)CC1` (stereo not given) [Cetirizine dihydrochloride], the log is 0.0769.

With `C#C[C@]1(OC(C)=O)CC[C@H]2[C@@H]3CCC4=CC(=NO)CC[C@@H]4[C@H]3CC[C@@]21CC` (mixture of isomers) [Norgestimate], the log was 0.0364.

On to `Clc1ccc(CO/N=C(\Cn2ccnc2)c2ccc(Cl)cc2Cl)c(Cl)c1` [Oxiconazole Nitrate], for which the log was 0.129.

For `CC(=O)O[C@]1(C(C)=O)CC[C@H]2[C@@H]3C=C(Cl)C4=CC(=O)[C@@H]5C[C@@H]5[C@]4(C)[C@H]3CC[C@@]21C` [Cyproterone acetate], the log is -0.0623.

Turning to `Clc1ccc(CSC(Cn2ccnc2)c2ccc(Cl)cc2Cl)cc1` (stereo not given) [Sulconazole nitrate], the log was -0.291.

In the case of `CN(C)CCN(Cc1ccccc1)c1ccccn1` [Tripelennamine hydrochloride], the log was -0.0312.

For the compound `CC1CNc2c(cccc2S(=O)(=O)N[C@@H](CCCNC(=N)N)C(=O)N2CC[C@@H](C)C[C@@H]2C(=O)O)C1` (stereo not given in full) [Argatroban], the log was -0.0206.

For the compound `CN1C(=O)CC(c2ccccc2)C1=O` (stereo not given) [Phensuximide], the log was found to be 0.0795.

For `Nc1ccn([C@@H]2O[C@H](CO)[C@@H](O)C2(F)F)c(=O)n1` [Gemcitabine], the log was -0.556.

In the case of `CC(=O)O[C@@]12CO[C@@H]1C[C@H](O)[C@@]1(C)C(=O)[C@H](O)C3=C(C)[C@@H](OC(=O)[C@H](O)[C@@H](NC(=O)OC(C)(C)C)c4ccccc4)C[C@@](O)([C@@H](OC(=O)c4ccccc4)[C@H]21)C3(C)C` [Docetaxel], the log was 0.243.

Consider `N=C(N)NC(=O)Cc1c(Cl)cccc1Cl` [Guanfacine hydrochloride], for which the log is -0.0529.

For `CC(=O)[C@H]1CC[C@H]2[C@@H]3CCC4=CC(=O)CC[C@]4(C)[C@H]3CC[C@]12C` [Progesterone], the log is -0.224.

Regarding `CN(C)CC/C=C1/c2ccccc2Sc2ccc(Cl)cc21` [Chlorprothixene hydrochloride], the log was determined as 0.0849.

On to `NC(Cc1cc(I)c(Oc2cc(I)c(O)c(I)c2)c(I)c1)C(=O)O` (stereo not given) [Thyroxine (L)], for which the log was -0.305.

For the compound `CN(C)CCOC(c1ccccc1)c1ccccc1` [Diphenhydramine hydrochloride], the log is 0.127.

For the compound `COc1ccc2[nH]c([S+]([O-])Cc3ncc(C)c(OC)c3C)nc2n1` (stereo not given) [Tenatoprazole], the log was -0.102.

Take `C[C@]12CC[C@@H]3c4ccc(O)cc4CC[C@H]3[C@@H]1CC[C@@H]2O` [Estradiol-17 beta]: the log was -0.597.

For `CCCN(CCC)S(=O)(=O)c1ccc(C(=O)O)cc1` [Probenecid], the log was 0.0878.

`CCCc1cc(=O)[nH]c(=S)[nH]1` [Propylthiouracil]: the log was found to be 0.0157.

For the compound `COc1ccc(CCN(C)CCCC(C#N)(c2ccc(OC)c(OC)c2)C(C)C)cc1OC` (stereo not given) [Verapamil hydrochloride], the log is 0.21.

Consider `C[N+]1(CCCCC[N+]2(C)CCCC2)CCCC1` [Pentolinium bitartrate], for which the log was determined as 0.0452.

For the compound `Oc1ncnc2[nH]ncc12` [Allopurinol], the log was 0.187.

On to `CNCCCC1c2ccccc2C=Cc2ccccc21` [Protriptyline hydrochloride], for which the log was determined as 0.0878.

Turning to `CCCCCCC[N+](CC)(CC)CCCCc1ccc(Cl)cc1` [Clofilium tosylate], the log is 0.00719.

Regarding `C[C@]12CCC(=O)C=C1CC[C@@H]1[C@@H]2[C@@H](O)C[C@@]2(C)[C@H]1CC[C@]2(O)C(=O)CO` [Hydrocortisone base], the log was -0.0288.

For `CN[C@@H]1[C@H](O[C@H]2[C@H](O[C@H]3[C@H](O)[C@@H](O)[C@H](N=C(N)N)[C@@H](O)[C@@H]3N=C(N)N)O[C@@H](C)[C@]2(O)C=O)O[C@@H](CO)[C@H](O)[C@H]1O` [Streptomycin sulfate], the log is -0.452.

Regarding `Nc1nc(Cl)nc2c1ncn2[C@H]1C[C@H](O)[C@@H](CO)O1` [Cladribine], the log is -0.834.

For the compound `OCCOCCN1CCN(C2=Nc3ccccc3Sc3ccccc32)CC1` [Quetiapine], the log worked out at 0.0562.

`CC1(C)S[C@@H]2[C@H](NC(=O)[C@H](N)c3ccc(O)cc3)C(=O)N2[C@H]1C(=O)O` [Amoxicillin]: the log amounted to 0.093.

For `CCC(=O)O[C@@H](O[P@](=O)(CCCCc1ccccc1)CC(=O)N1C[C@H](C2CCCCC2)C[C@H]1C(=O)O)C(C)C` [Fosinopril], the log was found to be 0.0542.

`COc1cccc2c1C(=O)c1c(O)c3c(c(O)c1C2=O)C[C@@](O)(C(=O)CO)C[C@@H]3O[C@H]1C[C@H](N)[C@H](O)[C@H](C)O1` [Doxorubicin hydrochloride]: the log is -0.865.

As to `CCCCC(=O)O[C@H]1CC[C@H]2[C@@H]3CCc4cc(O)ccc4[C@H]3CC[C@]12C` [Estradiol Valerate], the log is -0.54.

In the case of `N=C(N)c1ccc(OCCCCCOc2ccc(C(=N)N)cc2)cc1` [Pentamidine isethionate], the log is -0.0196.

As to `Fc1ccc(C(c2ccc(F)cc2)N2CCN(C/C=C/c3ccccc3)CC2)cc1` [Flunarizine dihydrochloride], the log was 0.0503.

The values are drawn from the supplement of paper PMC7024190.
